This passage reports binding results from article PMC12768439.

Protein sequences, listed by entry. Tags and fused reporters are not part of them.
UniProt Q8K2Q9: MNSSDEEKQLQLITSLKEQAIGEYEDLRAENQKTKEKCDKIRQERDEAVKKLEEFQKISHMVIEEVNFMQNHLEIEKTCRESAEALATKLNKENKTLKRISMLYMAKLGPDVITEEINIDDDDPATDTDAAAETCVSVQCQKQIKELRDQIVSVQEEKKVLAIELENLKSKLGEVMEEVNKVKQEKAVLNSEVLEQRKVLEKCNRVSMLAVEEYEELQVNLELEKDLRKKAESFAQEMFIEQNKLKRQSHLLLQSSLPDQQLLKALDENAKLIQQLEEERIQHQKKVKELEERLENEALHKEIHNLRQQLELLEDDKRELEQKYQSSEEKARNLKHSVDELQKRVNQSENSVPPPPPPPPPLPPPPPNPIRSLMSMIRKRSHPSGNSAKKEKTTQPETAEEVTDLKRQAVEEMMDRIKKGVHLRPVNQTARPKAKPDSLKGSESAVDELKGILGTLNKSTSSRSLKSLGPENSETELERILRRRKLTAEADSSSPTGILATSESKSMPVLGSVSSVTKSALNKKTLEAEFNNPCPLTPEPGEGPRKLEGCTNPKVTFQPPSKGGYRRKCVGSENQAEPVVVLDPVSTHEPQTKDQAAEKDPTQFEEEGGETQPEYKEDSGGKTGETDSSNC

Results are given in words; binding and its absence hold for the method and conditions named. For some assays here: Binding seen in cells or lysates may run through a third protein. Some entries that bind do so weakly or less than the wild type.

For test [1], the target named is FLAG-tagged Shootin1 (FLAG-SHTN1, long isoform SHTN1L) (UniProt Q8K2Q9). Description: native gel or EMSA; nondenaturing native PAGE, 8% gel, running buffer 25 mM Tris, 192 mM glycine pH 7.5, no SDS or reducing agents, samples not heated, 200 V for 4 h on ice, Coomassie staining; both purified.
Test [2] has as its target EGFP-fused full-length Shootin1 (EGFP-SHTN1) (UniProt Q8K2Q9). Description: co-IP; Neuro-2a cells coexpressing EGFP- and FLAG-tagged Shootin1 variants; lysis in 50 mM Tris-HCl pH 7.4, 150 mM NaCl, 0.5% Triton X-100; GFP-Trap magnetic beads 1 h at 4 °C; washes with 300 mM NaCl; anti-FLAG immunoblot. For orientation: In western blotting, separated proteins are transferred to a membrane and probed.

With “FLAG-tagged Shootin1 (FLAG-SHTN1, long isoform SHTN1L) (from UniProt Q8K2Q9 1-631)”, the binding entry in test [1] and in test [2] was “binds” each time.
